No constants are given. Whether binding was seen depends on the method and setting. Some entries that bind do so weakly or less than the wild type.
Key:
[1] = target: C. difficile toxin B from strain VPI10463 (ATCC 43255), toxinotype 0 (Clostridium difficile) (UniProt P18177); experiment: Western blot, toxin of toxinotype 0
[2] = target: C. difficile toxin B from strain VPI10463 (ATCC 43255), toxinotype 0 (Clostridium difficile) (UniProt P18177); experiment: BLI (Octet Red96)
[3] = target: C. difficile toxin B from strain VPI10463 (ATCC 43255), toxinotype 0 (Clostridium difficile) (UniProt P18177); experiment: Western blot, Toxinotype Binding (toxinotype 0)
[4] = target: C. difficile toxin A from strain VPI10463 (ATCC 43255), toxinotype 0 (Clostridium difficile) (UniProt P16154); experiment: Western blot, toxin of toxinotype 0
[5] = target: C. difficile toxin A from strain VPI10463 (ATCC 43255), toxinotype 0 (Clostridium difficile) (UniProt P16154); experiment: BLI (Octet Red96)
[6] = target: C. difficile toxin A from strain VPI10463 (ATCC 43255), toxinotype 0 (Clostridium difficile) (UniProt P16154); experiment: Western blot, Toxinotype Binding (toxinotype 0)

Measured: binding

B1: B6 antibody (antibody, V domains shown)
VH: EVQLVESGGGLVQPGGSLRLSCAASGFTFTTSTMNWVRQAPGKGLEWVSYITRTSTVIYYADSVKGRFTISRDNAKNSLYLQMSSLRAEDTAVYYCARGVRDIGGNGFDYWGQGTLVTVSS
VL: EIVLTQSPGTLSLSPGERATLSCRASQSVTSSYLAWYQQKTGQAPRLLIYGASSRATGIPDRFSGSGSGTDFTLTIARLEPEDFAVYYCQQYGSSPPYTFGQGTKLEIKR
binds: [1] | [2] | [3]

B2: A5 antibody (antibody, V domains shown)
VH: QVHLVESGGGVVQPGRSLRLSCATFGLNFSDYGFHWVRQAPGKGLEWVAVTSYDGSNKYYAEFVKGRFTISRDNYKNTVYLQMNSLRLEDTAVYYCARDLAPYNFWSGYGNNWFDPWGQGTLVTVSS
VL: EIVMTQSPATLSVSPGERATLSCRASQSISSNLAWYQQKPGQAPRLLIYDASTRATGIPARFSGSGSGTEFTLTISSLQSEDFAVYYCQQYNDWLVTFGQGTKVEIKR
binds: [4] | [5] | [6]

Source: patent US20190153078A1
